Experiment: H2S release on irradiation of PpIX in a cell free system, fluorogenic probe WSP-1
Details: for effect of irradiation on H2S release / H2S release prior to irradiation: donor 100 μM; for H2S release prior to irradiation: with vs without PpIX 2 μM
[1] = in the presence of PpIX 2 μM, 636 nm, 25 J/cm2

Row | SMILES | effect of irradiation on H2S release (in the absence of PpIX) | effect of irradiation on H2S release [1] | H2S release prior to irradiation (FIG. 5, 6) | relative H2S release (AP123-C10 vs AP39-C10, 100 μM, FIG. 5, 6)
1 | O=C(CCCCCCCCC[P+](c1ccccc1)(c1ccccc1)c1ccccc1)Oc1ccc(-c2cc(=S)ss2)cc1 [AP39-C10] | does not have any significant effect on the release of H2S | significantly increases the release of H2S | unaffected by the presence of PpIX | –
2 | NC(=S)c1ccc(OC(=O)CCCCCCCCC[P+](c2ccccc2)(c2ccccc2)c2ccccc2)cc1 [AP123-C10] | does not have any significant effect on the release of H2S | significantly increases the release of H2S | unaffected by the presence of PpIX | releases more H2S than the 4-HTB derivative AP39-C10
